Record: PubChem BioAssay AID1053208 (Peter MacCallum Cancer Centre, 2014)

Purpose: 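Find knock-downs that sensitise mouse osteosarcoma cells to doxorubicin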 (primary screen)
Cells: mouse osteosarcoma cells, early-passage culture from an engineered mouse model of fibroblastic bone tumour
Reagents: siRNA pool against mouse genes, 40 nM
Time to read-out: about 120 h (48 h before drug, then 72 h with drug)
Treatment: doxorubicin 100 nM for 72 h, roughly 30-40% inhibitory dose
Detection: 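Viability read as ATP luminescence after 72 h of 100 nM doxorubicin or none, duplicate wells averaged, scaled to non-targeting siRNA, then expressed as robust z-scores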
Scale: viability z-score with doxorubicin: higher = more viable cells under doxorubicin; viability z-score without drug: higher = more viable cells with knock-down alone
Hit rule: 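Called active if knock-down leaves viability unchanged without drug (z within -2 to 2) but lowers it with doxorubicin (z at or under -2)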
Shown is a random part of about 17,000 reagents tested. 788 of them (4.7%) count as active. 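Calls rest on z-score classes alone; an extra cut-off of viability at most 70% of control was not applied to them.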 Entries without a mark were called inactive. Reagents against one gene are numbered here. Not all columns of the deposit are shown.

Ist1 (IST1 factor associated with ESCRT-III) — combined z-score class = low cell count with doxorubicin only (active); viability z-score with doxorubicin = -3.48; viability z-score without drug = 0.84
Atg2b (autophagy related 2B) #1 — combined z-score class = no change with or without drug; viability z-score with doxorubicin = -0.45; viability z-score without drug = -0.84
Atg2b (autophagy related 2B) #2 — combined z-score class = no change with or without drug; viability z-score with doxorubicin = 1.01; viability z-score without drug = 0.84
Spaca4 (sperm acrosome associated 4) — combined z-score class = no change with or without drug; viability z-score with doxorubicin = 0.45; viability z-score without drug = 0.84
Gemin4 (gem nuclear organelle associated protein 4) — combined z-score class = no change with or without drug; viability z-score with doxorubicin = 0.45; viability z-score without drug = 1.52
Snrnp27 (small nuclear ribonucleoprotein 27 (U4/U6.U5)) — combined z-score class = no change with or without drug; viability z-score with doxorubicin = 0.67; viability z-score without drug = 0.34
Or1j4 (olfactory receptor family 1 subfamily J member 4) — combined z-score class = no change with or without drug; viability z-score with doxorubicin = -0.45; viability z-score without drug = 0.51
Obi1 (ORC ubiquitin ligase 1) — combined z-score class = no change with or without drug; viability z-score with doxorubicin = -0.11; viability z-score without drug = 0.17
Inhca (inhibitor of carbonic anhydrase) — combined z-score class = no change with or without drug; viability z-score with doxorubicin = -1.01; viability z-score without drug = -0.51
Rap2c (RAP2C, member of RAS oncogene family) — combined z-score class = high cell count without drug only; viability z-score with doxorubicin = 0; viability z-score without drug = 2.19
Ush1c (USH1 protein network component harmonin) — combined z-score class = no change with or without drug; viability z-score with doxorubicin = -1.35; viability z-score without drug = -0.17
Adam4 (a disintegrin and metallopeptidase domain 4) — combined z-score class = no change with or without drug; viability z-score with doxorubicin = 0; viability z-score without drug = 0.17
Tnfrsf1b (tumor necrosis factor receptor superfamily, member 1b) — combined z-score class = no change with or without drug; viability z-score with doxorubicin = 0.67; viability z-score without drug = -0.17
Epb41l4a (erythrocyte membrane protein band 4.1 like 4a) — combined z-score class = no change with or without drug; viability z-score with doxorubicin = -0.34; viability z-score without drug = 0.17
Cyba (cytochrome b-245, alpha polypeptide) — combined z-score class = no change with or without drug; viability z-score with doxorubicin = 0.67; viability z-score without drug = -0.51
Etnk2 (ethanolamine kinase 2) — combined z-score class = no change with or without drug; viability z-score with doxorubicin = -0.9; viability z-score without drug = -0.84
Tor1a (torsin family 1, member A (torsin A)) — combined z-score class = no change with or without drug; viability z-score with doxorubicin = -0.9; viability z-score without drug = 0.17
Klri2 (killer cell lectin-like receptor family I member 2) — combined z-score class = no change with or without drug; viability z-score with doxorubicin = 0.56; viability z-score without drug = 1.18
Katna1 (katanin p60 (ATPase-containing) subunit A1) — combined z-score class = no change with or without drug; viability z-score with doxorubicin = -1.57; viability z-score without drug = 0.51

Reprinted from above for reference:
Tnfrsf1b (tumor necrosis factor receptor superfamily, member 1b) — combined z-score class = no change with or without drug; viability z-score with doxorubicin = 0.67; viability z-score without drug = -0.17
Epb41l4a (erythrocyte membrane protein band 4.1 like 4a) — combined z-score class = no change with or without drug; viability z-score with doxorubicin = -0.34; viability z-score without drug = 0.17
